In article PMC7819943, “Rice protein-binding microarrays: a tool to detect cis-acting elements near promoter regions in rice”:
The other results are listed elsewhere or left out.

Each sequence was assayed against T1, OsSMF1 (Oryza sativa, UniProt Q6ZLB0 1-436) (assay: protein-binding microarray (RPBM); PBS, 2% BSA, 51.3 ng/ul salmon testes DNA, 50 uM zinc acetate, 200 nM TF, 25 C, 1 h; high values mean tight binding). Conditions: protein: recombinant; tags: N-terminal polyhistidine and DsRed monomer fusion (pET32a); chain copies: 2; label: CyDye5-dUTP incorporated in the synthesized complementary strand; 3' TTTTT single-stranded linker to array surface; dsDNA, one strand shown.
T1 sequence: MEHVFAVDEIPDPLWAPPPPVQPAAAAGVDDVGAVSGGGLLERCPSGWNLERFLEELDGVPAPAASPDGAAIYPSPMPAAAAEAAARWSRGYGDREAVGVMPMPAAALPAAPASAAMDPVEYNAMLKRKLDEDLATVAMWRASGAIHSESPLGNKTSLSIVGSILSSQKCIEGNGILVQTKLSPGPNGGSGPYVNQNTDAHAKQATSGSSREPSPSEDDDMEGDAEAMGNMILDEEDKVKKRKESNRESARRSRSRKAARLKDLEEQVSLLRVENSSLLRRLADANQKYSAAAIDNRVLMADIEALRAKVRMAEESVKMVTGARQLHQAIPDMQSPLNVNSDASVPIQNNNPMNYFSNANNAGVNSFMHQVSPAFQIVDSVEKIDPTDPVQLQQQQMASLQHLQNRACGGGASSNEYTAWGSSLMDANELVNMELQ
In short: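 Binding signal here means per-feature fluorescence intensity in arbitrary units. The values were read on an Axon 4000B scanner after a custom Agilent array, double-stranded by primer extension with Cy5-dUTP, was incubated with 200 nM protein at 25 °C for 1 h in PBS with 2% BSA, salmon testes DNA and 50 µM zinc acetate, then washed. The proteins were transcription factors with an N-terminal polyhistidine tag and DsRed, expressed in E. coli BL21-CodonPlus and purified on Ni–NTA.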

Q: How did the binding signal turn out when “AGCCGTGCGACAACCAGGTCAGCCGAACTCCGCCCTCATTCGGAGTCACCTAGTGCAG” was run?
A: 3260 fluorescence intensity (a.u.)

Q: How did the binding signal turn out when “CGATTCCACCTATTCAGAAATCACGCGATGACTACGCCGCCGGAGTCACCTAGTGCAG” was run?
A: 3330 fluorescence intensity (a.u.)

Q: With “ATCGCGTTGGCTGGCCTGGCATCCATCGGCAGTGGCAGTGCGGAGTCACCTAGTGCAG” as the sequence, how does the binding signal read?
A: 3260 fluorescence intensity (a.u.)

Q: For “GCATGACACGTCTGCGCTGAGTCAGTCTGGTGGTCCTAATCGGAGTCACCTAGTGCAG”, which binding signal is on record?
A: 16700 fluorescence intensity (a.u.)

Q: “CGTTGTTACCACCTCATTTTACGTGGAACATTTAATCTTTCGGAGTCACCTAGTGCAG” was tested. Which binding signal did it give?
A: 5000 fluorescence intensity (a.u.)

Q: “TCAAGGCGCCGCGAGCACGTCACCGCGAACCGCATCCATCCGGAGTCACCTAGTGCAG” was tested. Which binding signal did it give?
A: 3790 fluorescence intensity (a.u.)

Q: For “ATCCTCCGCCACCGCCGCCCGCGCCGATCCCCACCCATCGCGGAGTCACCTAGTGCAG”, which binding signal is on record?
A: 3410 fluorescence intensity (a.u.)

Q: Which binding signal does the source give for “TTGTTGCAACAACGCATGTGGTGGGACACGTGGTGGGAACCGGAGTCACCTAGTGCAG” here?
A: 5500 fluorescence intensity (a.u.)

Q: How did the binding signal turn out when “ATTGGGAGCGCGGATGTGTGCGTGGCGTGAAATCTCCGACCGGAGTCACCTAGTGCAG” was run?
A: 4670 fluorescence intensity (a.u.)

Q: “CCAAAGTTATTATTAGTGTTTCTTCTATCATTTCATCTCCCGGAGTCACCTAGTGCAG” was tested. Which binding signal did it give?
A: 3570 fluorescence intensity (a.u.)

Q: With “ATGTTGACTCGTTTGCCTGTGTTCCTCTTGCTGCTATTCACGGAGTCACCTAGTGCAG” as the sequence, how does the binding signal read?
A: 3230 fluorescence intensity (a.u.)

Q: How did the binding signal turn out when “CCAAGTGGTCCGGTCCGGTGATGCAGGCCAGCCCAACGATCGGAGTCACCTAGTGCAG” was run?
A: 3140 fluorescence intensity (a.u.)

Q: With “TGCAGTGCAAGGCCCTGGAGCTCTGCTTCAACGTGGCGCTCGGAGTCACCTAGTGCAG” as the sequence, how does the binding signal read?
A: 4770 fluorescence intensity (a.u.)

Q: “AGGCAACAAGAGTAGGTTCCATTTCATATCATCACTAGGACGGAGTCACCTAGTGCAG” was tested. Which binding signal did it give?
A: 4010 fluorescence intensity (a.u.)

Q: “CGTCCTCCTCGTCATCGACGCCCCAATCGGCACCGCCTCCCGGAGTCACCTAGTGCAG” was tested. Which binding signal did it give?
A: 4860 fluorescence intensity (a.u.)

Q: With “TGAATCTGTTGCATCTGTAGCAATCATGCGACTAGGTACACGGAGTCACCTAGTGCAG” as the sequence, how does the binding signal read?
A: 3350 fluorescence intensity (a.u.)

Q: For “TATTAGACTAGGTCAACGAGCCATGTCAGCATAGGATCAACGGAGTCACCTAGTGCAG”, which binding signal is on record?
A: 10400 fluorescence intensity (a.u.)

Q: For “GGCGACTGCACGTGTCCTCCATGGCCGCGGCGCTGGGTTGCGGAGTCACCTAGTGCAG”, which binding signal is on record?
A: 3430 fluorescence intensity (a.u.)

Q: Which binding signal does the source give for “GCAAACAAAATATACCTGCCAAGTCAACTTCACGGCCGGACGGAGTCACCTAGTGCAG” here?
A: 4280 fluorescence intensity (a.u.)

Q: For “CCGGGCCCATATCACCGACAACGACGATGTCGAAGCAACGCGGAGTCACCTAGTGCAG”, which binding signal is on record?
A: 4100 fluorescence intensity (a.u.)

Q: For “GGAACGGGAAGGCAGGTCGGTCATACACGTAAGATAGGACCGGAGTCACCTAGTGCAG”, which binding signal is on record?
A: 6430 fluorescence intensity (a.u.)

Q: For “TTTGTGAGTGTGCGTGTATAGTGATGCGTATGCGTATGTGCGGAGTCACCTAGTGCAG”, which binding signal is on record?
A: 5560 fluorescence intensity (a.u.)

Q: “GATGTAGTATTATTAGTAGATCCGATTGATTACGTGTGAGCGGAGTCACCTAGTGCAG” was tested. Which binding signal did it give?
A: 4940 fluorescence intensity (a.u.)

Q: “CGTTCCTAGTTCCTCGCCGTCGCCAACATCGATAGCAGAGCGGAGTCACCTAGTGCAG” was tested. Which binding signal did it give?
A: 3190 fluorescence intensity (a.u.)

Q: How did the binding signal turn out when “ATCTAACGTACCACGTAAGCATCACATGTGATAAAATCGTCGGAGTCACCTAGTGCAG” was run?
A: 7220 fluorescence intensity (a.u.)

Q: For “CGCCGCGGAACGGCACGTCGGCGGTGCTGCGGCTGACGCACGGAGTCACCTAGTGCAG”, which binding signal is on record?
A: 4200 fluorescence intensity (a.u.)

Q: For “GCCACCGCCGCGGGCGCGGCCCCGGCCCCGGCCCCGGCCGCGGAGTCACCTAGTGCAG”, which binding signal is on record?
A: 3390 fluorescence intensity (a.u.)

Q: How did the binding signal turn out when “TCGTGAGGGGCCGTCACCGTCAGCCCGTCCAGTTTCTGGTCGGAGTCACCTAGTGCAG” was run?
A: 4460 fluorescence intensity (a.u.)

Q: For “GATTTTGATGCCTGCTCCCCGATGTGTCCATCGGGTGTCGCGGAGTCACCTAGTGCAG”, which binding signal is on record?
A: 4230 fluorescence intensity (a.u.)

Q: For “AAACACTATGGTGACCACGGCGCGAAGACCTCGGTGATGACGGAGTCACCTAGTGCAG”, which binding signal is on record?
A: 3140 fluorescence intensity (a.u.)

Q: For “GCTTCCCACGCGTCGCTTCGCTATCGCGGCCGTCCCCGCACGGAGTCACCTAGTGCAG”, which binding signal is on record?
A: 5120 fluorescence intensity (a.u.)

Q: “ACAGTAGCACCGGAAAGCTGCATGTGAAGTCTAGTCAACGCGGAGTCACCTAGTGCAG” was tested. Which binding signal did it give?
A: 4250 fluorescence intensity (a.u.)

Q: “CGCGGTACTCCCTCGCCACCGTGTACGTGACGTCCGCGGCCGGAGTCACCTAGTGCAG” was tested. Which binding signal did it give?
A: 7160 fluorescence intensity (a.u.)

Q: How did the binding signal turn out when “AGAAGGCCCACGCTAAACAGCCCACGTAATAACCGCACGGCGGAGTCACCTAGTGCAG” was run?
A: 5110 fluorescence intensity (a.u.)

Q: With “TCGATAAATGTTTCATTTCATTTTAGTACACGCATTGGCGCGGAGTCACCTAGTGCAG” as the sequence, how does the binding signal read?
A: 3300 fluorescence intensity (a.u.)

Q: For “GAGTGTGCAGAGGGAGACAAAGGTGATCTGGCAGTGGATACGGAGTCACCTAGTGCAG”, which binding signal is on record?
A: 4550 fluorescence intensity (a.u.)

Q: How did the binding signal turn out when “ATCCACCATCCATCCACGTCGCGACGCGTCCAACTCCATCCGGAGTCACCTAGTGCAG” was run?
A: 4810 fluorescence intensity (a.u.)

Q: “TCTTTCGCTGCGTTGCGTCATCAGCTCTGAAACTCTGAAACGGAGTCACCTAGTGCAG” was tested. Which binding signal did it give?
A: 10100 fluorescence intensity (a.u.)

Q: How did the binding signal turn out when “GGAGGAAAATGGCCCTGATCAGCATCAGGGCAAGTACTATCGGAGTCACCTAGTGCAG” was run?
A: 3200 fluorescence intensity (a.u.)

Q: Which binding signal does the source give for “ATATTGCTTTGGGATCAAAAGGTGACTCAGTTTATACCAGCGGAGTCACCTAGTGCAG” here?
A: 3650 fluorescence intensity (a.u.)

Q: Which binding signal does the source give for “CCCTGCCCACCTGCCACGTGTCTCTACCAATAAATCACCTCGGAGTCACCTAGTGCAG” here?
A: 11600 fluorescence intensity (a.u.)

Q: With “CGCATGTAGAATCTAACTAGTTAAAGATTAAAATTTTGAACGGAGTCACCTAGTGCAG” as the sequence, how does the binding signal read?
A: 29100 fluorescence intensity (a.u.)

Q: With “AAGGTCTCGCTCTCACTCACCGACGTCACCGTTCCTTTATCGGAGTCACCTAGTGCAG” as the sequence, how does the binding signal read?
A: 3550 fluorescence intensity (a.u.)

Q: “ATGCAATTTTGCCCAAGTAGCCCATAAAACCTCCGGACCACGGAGTCACCTAGTGCAG” was tested. Which binding signal did it give?
A: 31700 fluorescence intensity (a.u.)

Q: How did the binding signal turn out when “AGTACTGTAATAATTCTATTAACTTTCTTGTTCAGAATGCCGGAGTCACCTAGTGCAG” was run?
A: 3590 fluorescence intensity (a.u.)

Q: Which binding signal does the source give for “TTTAATGTCTAAATTTAATAGTAGAGTCATACCTTCACCTCGGAGTCACCTAGTGCAG” here?
A: 4010 fluorescence intensity (a.u.)

Q: Which binding signal does the source give for “TGAAGAAGCTCCACCTCTTGGCGTTAATGACAATGACAGTCGGAGTCACCTAGTGCAG” here?
A: 3490 fluorescence intensity (a.u.)

Q: “CCAGTCAACGCCACGACATTCGCACGGCTCGCCCAACTCCCGGAGTCACCTAGTGCAG” was tested. Which binding signal did it give?
A: 5780 fluorescence intensity (a.u.)

Q: For “ATTCTACCACATCACACACACACAAACACACACATATTCTCGGAGTCACCTAGTGCAG”, which binding signal is on record?
A: 3520 fluorescence intensity (a.u.)

Q: Which binding signal does the source give for “TGTCAGCCCACAGGAAAATTTGCTGCCATGCCGGCGTGCGCGGAGTCACCTAGTGCAG” here?
A: 3460 fluorescence intensity (a.u.)

Q: With “GCATATCGGCGCTCCCCGACGACCTCATCCAGCGCATCCTCGGAGTCACCTAGTGCAG” as the sequence, how does the binding signal read?
A: 3600 fluorescence intensity (a.u.)

Q: How did the binding signal turn out when “ACTACCACTCAAGGGTCTTTACCGTGACGCCATCAGTCTGCGGAGTCACCTAGTGCAG” was run?
A: 7250 fluorescence intensity (a.u.)

Q: How did the binding signal turn out when “AACTCCAATGCACGCCACGCCACGCCACAATTACAATTATCGGAGTCACCTAGTGCAG” was run?
A: 4100 fluorescence intensity (a.u.)

Q: For “GAGGCCTCCTCGGGAGCTAAGCTTGTATGCGTGTGGCTCGCGGAGTCACCTAGTGCAG”, which binding signal is on record?
A: 25500 fluorescence intensity (a.u.)
